Values of other authors in patent US20250368648A1, “MULTI-CYCLIC IRAK AND FLT3 INHIBITING COMPOUNDS AND USES THEREOF” (CHILDREN'S HOSPITAL MEDICAL CENTER, priority 2022, published 2025).
At least one structure is not confirmed: it was looked up by name or label, or the drawing left a doubt.

System: AML cell lines
Details: combined with a concentration of an exemplary IRAK inhibitor; U.S. Ser. No. 16/804,518; cited from earlier work

## CC1(C)CCC(CN2CCN(c3ccc(C(=O)NS(=O)(=O)c4ccc(NCC5CCOCC5)c([N+](=O)[O-])c4)c(Oc4cnc5[nH]ccc5c4)c3)CC2)=C(c2ccc(Cl)cc2)C1 [venetoclax]
  increase of the potency of venetoclax: ~50 fold
